# Test results as given in US8236762B2 (IPSEN Pharma S.A.S., priority 2006, dated 2012).
# Assay: general procedure: Fmoc solid-phase peptide synthesis; Rink Amide MBHA resin, 0.72 mmol/g; HBTU/HOBT/DIEA; HATU/HOAT/DIEA for Aepa; DIC/HOBT for Doc; DIC/HOAt/DIEA for cyt
# Settings: whole synthesis, HPLC, scale of the general procedure 1 mmol
row,Substance,final HPLC purity [%]
1,"PEPTIDE1{[CPT-rvApn-Suc].[Doc].[Doc].[Doc].[Doc].[Aepa].[dF].C.Y.[dW].K.[Abu].C.T.[am]}$PEPTIDE1,PEPTIDE1,8:R3-13:R3$$$V2.0",99
2,"PEPTIDE1{[CPT-rvVal-Suc].[Doc].[Doc].[Doc].[Doc].[Aepa].[dF].C.Y.[dW].K.[Abu].C.T.[am]}$PEPTIDE1,PEPTIDE1,8:R3-13:R3$$$V2.0",99
3,"PEPTIDE1{[CPT-rvD-Glu-Suc].[Doc].[Doc].[Doc].[Doc].[Aepa].[dF].C.Y.[dW].K.[Abu].C.T.[am]}$PEPTIDE1,PEPTIDE1,8:R3-13:R3$$$V2.0",100
4,"PEPTIDE1{[CPT-rvPhe-Suc].[Doc].[Doc].[Doc].[Doc].[Aepa].[dF].C.Y.[dW].K.[Abu].C.T.[am]}$PEPTIDE1,PEPTIDE1,8:R3-13:R3$$$V2.0",99
5,"PEPTIDE1{[SN38-rvGly-Suc].[Doc].[Doc].[Doc].[Doc].[Aepa].[dF].C.Y.[dW].K.[Abu].C.T.[am]}$PEPTIDE1,PEPTIDE1,8:R3-13:R3$$$V2.0",98.6
6,"PEPTIDE1{[CPT-rvArg-Suc].[Doc].[Doc].[Doc].[Doc].[Aepa].[dF].C.Y.[dW].K.[Abu].C.T.[am]}$PEPTIDE1,PEPTIDE1,8:R3-13:R3$$$V2.0",92.3
7,Camptothecin-rvD-Val-Suc-(Doc)4-Aepa-D-Phe-c(Cys-Tyr-D-Trp-Lys-Abu-Cys)-Thr-NH2,99.9
8,"PEPTIDE1{[CPT-rvGly-Glut].[Doc].[Doc].[Doc].[Doc].K.[dY].[dY].C.[3-(I)Tyr].[dW].K.[Abu].C.T.[am]}$PEPTIDE1,PEPTIDE1,9:R3-14:R3$$$V2.0",99
9,PEPTIDE1{[CPT-rvGly-Suc].[Doc].[Doc].[Doc].[Doc].[Aepa].[dS].[dY].Q.W.A.V.[bAla].H.L.[Nle].[am]}$$$$V2.0,99.9
10,Camptothecin-rvDAsp-Suc-(Peg3)3-Aepa-DPhe-c(Cys-Tyr-DTrp-Lys-Abu-Cys)-Thr-NH2,99.9
11,Camptothecin-rvD-Glu-Suc-(Doc)4-Aepa-D-Phe-c(Cys-Tyr-D-Trp-Lys-Abu-Cys)-Thr-NH2 and Camptothecin-rvGlu-Suc-(Doc)4-Aepa-D-Phe-c(Cys-Tyr-D-Trp-Lys-Abu-Cys)-Thr-NH2,94.2
12,"PEPTIDE1{[CPT-rvAla-Suc].[Doc].[Doc].[Doc].[Doc].[Aepa].[dF].C.Y.[dW].K.[Abu].C.T.[am]}$PEPTIDE1,PEPTIDE1,8:R3-13:R3$$$V2.0",99.9
13,PEPTIDE1{[CPT-rvGly-Suc].[Doc].[Doc].[Doc].[Doc].[Aepa].[Gaba].[dS].[dY].Q.W.A.V.[bAla].H.L.[Nle].[am]}$$$$V2.0,99.9
14,PEPTIDE1{[CPT-rvGly-Suc].[Doc].[Doc].[Doc].[Doc].[Aepa].[Nle].Q.W.A.V.[bAla].H.L.[Nle].[am]}$$$$V2.0,99
15,PEPTIDE1{[CPT-rvGly-Suc].[Doc].[Doc].[Doc].[Doc].[Aepa].[Apn].N.Q.W.A.V.[bAla].H.L.[Nle].[am]}$$$$V2.0,99
16,Camptothecin-rvD-Dap(Z)-Suc-(Doc)4-Aepa-D-Phe-c(Cys-Tyr-D-Trp-Lys-Abu-Cys)-Thr-NH2,99
17,Camptothecin-rvDAsp-Suc-Peg11-Aepa-DPhe-c(Cys-Tyr-DTrp-Lys-Abu-Cys)-Thr-NH2,99.9
18,PEPTIDE1{[CPT-rvGly-Suc].[Doc].[Doc].[Doc].[Doc].[Aepa].L.[Gaba].Q.W.A.V.[bAla].H.L.[Nle].[am]}$$$$V2.0,99
19,"PEPTIDE1{[CPT-rvAbu-Suc].[Doc].[Doc].[Doc].[Doc].[Aepa].[dF].C.Y.[dW].K.[Abu].C.T.[am]}$PEPTIDE1,PEPTIDE1,8:R3-13:R3$$$V2.0",99
20,"PEPTIDE1{[CPT-rvAnc-Suc].[Doc].[Doc].[Doc].[Doc].[Aepa].[dF].C.Y.[dW].K.[Abu].C.T.[am]}$PEPTIDE1,PEPTIDE1,8:R3-13:R3$$$V2.0",99
21,PEPTIDE1{[CPT-rvGly-Suc].[Doc].[Doc].[Doc].[Doc].[Aepa].[Gaba].N.Q.W.A.V.[bAla].H.L.[Nle].[am]}$$$$V2.0,99
22,"PEPTIDE1{[CPT-rvGly-Glut].[Doc].[Doc].[Doc].[Doc].K.[dY].[dY].C.F.F.[dW].K.T.C.[am]}$PEPTIDE1,PEPTIDE1,9:R3-15:R3$$$V2.0",99
23,PEPTIDE1{[CPT-rvGly-Suc].[Doc].[Doc].[Doc].[Doc].R.[dA].[dY].Q.W.A.V.[bAla].H.L.[Nle].[am]}$$$$V2.0,97.6
24,PEPTIDE1{[CPT-rvGly-Suc].[Doc].[Doc].[Doc].[Doc].K.[dS].[dY].Q.W.A.V.[bAla].H.L.[Nle].[am]}$$$$V2.0,99.9
25,"PEPTIDE1{[CPT-rvAhp-Suc].[Doc].[Doc].[Doc].[Doc].[Aepa].[dF].C.Y.[dW].K.[Abu].C.T.[am]}$PEPTIDE1,PEPTIDE1,8:R3-13:R3$$$V2.0",99
26,"PEPTIDE1{[CPT-rvDap(Z)-Suc].[Doc].[Doc].[Doc].[Doc].[Aepa].[dF].C.Y.[dW].K.[Abu].C.T.[am]}$PEPTIDE1,PEPTIDE1,8:R3-13:R3$$$V2.0",99
27,"PEPTIDE1{[CPT-Glut].[Doc].[Doc].[Doc].[Doc].[Aepa].[dF].C.Y.[dW].K.[Abu].C.T.[am]}$PEPTIDE1,PEPTIDE1,8:R3-13:R3$$$V2.0",96.8
28,"PEPTIDE1{[CPT-rvCha-Suc].[Doc].[Doc].[Doc].[Doc].[Aepa].[dF].C.Y.[dW].K.[Abu].C.T.[am]}$PEPTIDE1,PEPTIDE1,8:R3-13:R3$$$V2.0",99
29,PEPTIDE1{[CPT-rvGly-Suc].[Doc].[Doc].[Doc].[Doc].[Aepa].[Ahx].Q.W.A.V.[bAla].H.L.[Nle].[am]}$$$$V2.0,99
30,"PEPTIDE1{[CPT-rvGly-Glut].[Doc].[Doc].[Doc].[Doc].[Doc].[Doc].K.[dY].[dY].C.[3-(I)Tyr].[dW].K.[Abu].C.T.[am]}$PEPTIDE1,PEPTIDE1,11:R3-16:R3$$$V2.0",99

# Same assay, conditions: whole synthesis, scale 0.6 mmol
row,Substance,isolated yield [%]
1,"PEPTIDE1{[CPT-rvCha-Suc].[Doc].[Doc].[Doc].[Doc].[Aepa].[dF].C.Y.[dW].K.[Abu].C.T.[am]}$PEPTIDE1,PEPTIDE1,8:R3-13:R3$$$V2.0",99.9

# Same assay, conditions: whole synthesis, scale 0.8 mmol
row,Substance,isolated yield [%]
1,Camptothecin-rvD-Asp-Suc-(Doc)4-Aepa-D-Phe-c(Cys-Tyr-D-Trp-Lys-Abu-Cys)-Thr-NH2,13.9

# HELM strings list residues between dots; [ac] is acetyl, [am] amide, other brackets name non-standard units.
